# Measured data: PubChem BioAssay AID743454 (Peter MacCallum Cancer Centre, 2014)
# Screen: 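Genes whose loss kills vorinostat-resistant colon cancer cells under vorinostat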 (primary screen)
# Cell system: human HCT116-VR colon cancer cells, selected for vorinostat resistance
# Knock-down reagent: siRNA pool against human genes, 40 nM siRNA pool
# Time to read-out: vorinostat for 24 h, read-out about 72 h after transfection
# Treatment: vorinostat at 2.5 µM final
# Measured: 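Two measures, CellTiter-Fluor viability and luminescent caspase 3/7 activity, each as fold change against same-plate mock wells, mean of duplicates, then screen-wide robust z-score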
# Scale: viability robust z-score: higher = more viable cells than screen typical; caspase robust z-score: higher = more caspase 3/7 activity than screen typical
# Rule for the call: 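a knock-down is a hit when classed RV1 or RV2 for lowered viability, or CA1 or CA2 for caspase activation; those lethal without drug were dropped; hits were retested singly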
# Shown is a random part of about 18,000 deposited reagents. 450 of them (2.5%) were called active. 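Single biological run; no consistent viability z cut-off exists, so the class columns, not z-scores, define the calls.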
Target gene,viability hit class,caspase hit class,viability robust z-score,caspase robust z-score,call
PLBD2,no change,no change,-0.29,1.94,inactive
CDS1,no change,no change,0.17,-0.28,inactive
OR5T2,no change,no change,-0.51,2.17,inactive
SLX1A,no change,no change,-0.34,4.84,inactive
HRH4,no change,no change,-0.73,-0.58,inactive
SPATA22,no change,no change,0.28,1.73,inactive
CALHM6,no change,no change,-0.63,-1,inactive
ART5,no change,no change,-1.64,0.29,inactive
SPOCK1,no change,no change,-0.33,3.03,inactive
C1orf146,no change,no change,0.15,-0.68,inactive
C11orf65,no change,no change,-1.42,3.87,inactive
CXorf66,no change,no change,-0.47,-1.43,inactive
C2,no change,no change,-0.5,3.2,inactive
RTF1,no change,no change,-1.42,4.27,inactive
SLC39A6,no change,no change,0.17,3.29,inactive
IFIT2,no change,no change,0.46,0.62,inactive

Only “viability robust z-score”, for 2 of the entries above:
ART5	-1.64
SPOCK1	-0.33

Next reagents:
Target gene,viability hit class,caspase hit class,viability robust z-score,caspase robust z-score,call
QPCT,no change,no change,-0.13,0.6,inactive
TGFBI,no change,no change,1.26,3.15,inactive
NANOG,no change,no change,-0.64,3.71,inactive
EDA2R,no change,no change,1.51,-0.66,inactive
VMA22,no change,no change,-0.12,1.28,inactive
OAZ1,no change,no change,0.13,0.66,inactive
TRO,no change,no change,-1.86,-0.26,inactive
ANKS1B,no change,no change,0.28,2.57,inactive
LRRC37A2,no change,no change,0.69,0.84,inactive
RPA2,no change,CA2 (caspase activation),0.12,5.3,active
MRPS33,no change,no change,0.69,-0.48,inactive
MFSD12,no change,no change,-1.04,-1.28,inactive
SLC35B2,no change,no change,1.34,-0.46,inactive
PPP1R12A,no change,no change,-1.39,1.24,inactive
FABP5,no change,no change,-0.1,-1.08,inactive
ZNF804A,no change,no change,0.04,0.67,inactive
TGFBR1,no change,no change,1.48,0.62,inactive
INHA,no change,no change,1.63,-0.66,inactive
SLC35F3,no change,no change,0.88,-0.46,inactive
FERMT2,no change,CA2 (caspase activation),-2.34,6.12,active
GSK3A,no change,no change,-0.32,-0.45,inactive
MAP1LC3A,no change,no change,1.08,1.43,inactive
SORCS2,no change,no change,0.47,-1.25,inactive
